Reference: PMC7224567
Results are given in words; binding and its absence hold for the method and conditions named. In cells and extracts the contact can be indirect. Some binding calls cover weakened binding; strength is not graded here.

Protein sequences, listed by entry. Tags and fused reporters are not part of them.
UniProt P22366: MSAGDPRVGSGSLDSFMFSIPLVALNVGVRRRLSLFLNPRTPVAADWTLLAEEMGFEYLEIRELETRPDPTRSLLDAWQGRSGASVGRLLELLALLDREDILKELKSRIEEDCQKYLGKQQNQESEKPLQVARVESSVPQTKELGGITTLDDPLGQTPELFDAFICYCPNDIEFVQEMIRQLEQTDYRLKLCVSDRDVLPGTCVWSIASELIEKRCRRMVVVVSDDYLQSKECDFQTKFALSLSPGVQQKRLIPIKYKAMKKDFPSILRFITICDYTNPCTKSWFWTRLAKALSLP
UniProt Q6ZWS8: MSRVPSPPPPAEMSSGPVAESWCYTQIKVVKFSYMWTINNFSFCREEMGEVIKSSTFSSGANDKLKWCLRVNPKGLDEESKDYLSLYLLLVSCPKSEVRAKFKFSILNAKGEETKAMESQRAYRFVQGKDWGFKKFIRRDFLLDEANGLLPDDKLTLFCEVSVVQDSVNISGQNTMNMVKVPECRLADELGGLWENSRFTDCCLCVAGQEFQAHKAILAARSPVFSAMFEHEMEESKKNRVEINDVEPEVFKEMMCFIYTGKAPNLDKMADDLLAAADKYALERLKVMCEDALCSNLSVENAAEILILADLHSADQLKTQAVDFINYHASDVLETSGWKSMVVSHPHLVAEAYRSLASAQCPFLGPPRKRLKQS

Molecular target: mouse MyD88 (mouse) (UniProt P22366)
Assay: co-IP; CHO cells transfected with mouse MyD88 and SPOP; IP with anti-FLAG antibody

binding: binds
Substance: mouse SPOP (from UniProt Q6ZWS8 1-374)
